Experimental data taken from publication PMC12052211.

The chains behind the UniProt entries cited, without tags or fusion partners. Where a name states a change or a piece, a line headed by the entry shows the natural chain unless it says otherwise.
UniProt P21730: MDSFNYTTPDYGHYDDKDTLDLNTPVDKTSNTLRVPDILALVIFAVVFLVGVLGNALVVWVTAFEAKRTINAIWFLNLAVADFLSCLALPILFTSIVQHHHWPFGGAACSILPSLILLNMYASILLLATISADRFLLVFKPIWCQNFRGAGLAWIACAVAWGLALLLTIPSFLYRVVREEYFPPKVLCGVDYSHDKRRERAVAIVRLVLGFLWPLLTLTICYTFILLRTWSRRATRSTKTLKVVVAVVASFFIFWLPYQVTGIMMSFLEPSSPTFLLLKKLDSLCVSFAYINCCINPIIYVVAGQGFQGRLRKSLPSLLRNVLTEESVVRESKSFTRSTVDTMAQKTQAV
UniProt O80067: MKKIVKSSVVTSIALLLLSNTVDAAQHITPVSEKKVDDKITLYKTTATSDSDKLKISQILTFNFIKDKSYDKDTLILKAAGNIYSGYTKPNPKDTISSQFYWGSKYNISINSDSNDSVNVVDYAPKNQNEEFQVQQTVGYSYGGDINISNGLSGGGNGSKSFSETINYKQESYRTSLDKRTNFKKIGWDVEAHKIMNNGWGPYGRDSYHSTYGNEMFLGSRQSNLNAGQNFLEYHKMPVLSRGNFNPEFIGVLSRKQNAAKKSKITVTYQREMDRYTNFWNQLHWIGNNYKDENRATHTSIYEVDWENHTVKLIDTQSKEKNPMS

Columns and labels:
[1] = biological target: complement 5a receptor 1 (C5aR1) (human (endogenous in THP-1 and hiPSC-derived macrophages)) (UniProt P21730); assay: flow cytometry on cells; THP-1 macrophages (WT Cas9, SGMS1 KO, C5aR1 KO; also PBS or MβCD treated) exposed to PVL or LukS-PV; cell-surface LukS-PV detected with anti-LukS-PV antibodies; binding reduced on SGMS1 KO cells; only the binder purified
[2] = biological target: complement 5a receptor 1 (C5aR1) (human (endogenous in THP-1 and hiPSC-derived macrophages)) (UniProt P21730); assay: immunoblot of lysates of toxin-treated cells; total cell lysates of WT, C5aR1 KO and SGMS1 KO THP-1 macrophages treated with PVL for 5, 15 and 30 min, probed with antibodies against LukS-PV and C5aR1; only the binder purified
[3] = biological target: LukS-PV (S subunit of Panton-Valentine leukocidin) (Staphylococcus aureus) (UniProt O80066); assay: neutron reflectometry; purified PVL (100 µg/ml) on supported POPC/TOCL (w/w 2:1) bilayer, neutral buffer (10 mM HEPES, pH/pD 7.4, 150 mM NaCl), 1 h, three isotopic contrasts; both purified

Substance	binding [1]	binding [2]	binding [3]
LukS-PV (S subunit of Panton-Valentine leukocidin) (from UniProt O80066)	binds	binds	
LukF-PV (F subunit of Panton-Valentine leukocidin) (from UniProt O80067)			no binding (only at pH 7.4 (POPC/TOCL bilayer))

Results are given in words; binding and its absence hold for the method and conditions named. For part of these data: Binding can be weak; no strength is given.
